SMILES strings stand for the structures. Whole data set: some 1,600 compounds, median “Hit score” near 0.13, cut for the highest 2% near 0.46. The list shows a part of the results.

The subject of the assay is SARS-CoV-2. The experiment in a line: Antiviral activity against SARS-CoV-2 (USA-WA1/2020 strain) measured by imaging in HRCE cells at MOI 0.4 after 96 hrs (reported as hit score from 0-1 for on-disease vs off-disease activity: scores >0.6 considered hits). It is filed as functional, Homo sapiens.
In turn, `O=C1NC(c2ccccc2)(c2ccccc2)C(=O)N1COP(=O)(O)O` [FOSPHENYTOIN] registered a Hit score of -0.01075.

Turning to `C=C1/C(=C\C=C2/CCC[C@]3(C)[C@@H]([C@H](C)/C=C/[C@@H](O)C4CC4)CC[C@@H]23)C[C@@H](O)C[C@@H]1O` [CALCIPOTRIENE], the Hit score turned out to be 0.6212.

On to `CN(C)[C@@H]1C(O)=C(C(N)=O)C(=O)[C@@]2(O)C(O)=C3C(=O)c4c(O)c(NC(=O)CN5CCCC5)cc(F)c4C[C@H]3C[C@@H]12.Cl.Cl` [ERAVACYCLINE DIHYDROCHLORIDE], for which the Hit score amounted to 0.2526.

In turn, `CCOc1ccc(Cc2cc([C@@H]3O[C@H](CO)[C@@H](O)[C@H](O)[C@H]3O)ccc2Cl)cc1` [DAPAGLIFLOZIN] returned a Hit score of 0.2268.

`CCCCCCC(=O)O[C@H]1CC[C@H]2[C@@H]3CCC4=CC(=O)CC[C@]4(C)[C@H]3CC[C@]12C` [TESTOSTERONE ENANTHATE] showed a Hit score of 0.1237.

Compound `O=C(CN1CCN(Cc2ccc3c(c2)OCO3)CC1)N1c2ccccc2Sc2ccccc21` [FENOVERINE] gave a Hit score of 0.06568.

In the case of `CCN1CCC[C@H]1CNC(=O)c1cc(S(N)(=O)=O)ccc1OC` [LEVOSULPIRIDE], the Hit score came out at 0.1209.

Compound `CCOc1nc2cccc(C(=O)OC(C)OC(=O)OC3CCCCC3)c2n1Cc1ccc(-c2ccccc2-c2nn[nH]n2)cc1` (centres undefined) [CANDESARTAN CILEXETIL] came in with a Hit score of 0.1602.

The compound `C[C@H]1C[C@H]2[C@@H]3CCC4=CC(=O)C=C[C@]4(C)[C@@]3(Cl)[C@@H](O)C[C@]2(C)[C@@]1(O)C(=O)CO` [BECLOMETHASONE] displayed a Hit score of 0.1286.

Compound `CCCNS(=O)(=O)Nc1ncnc(OCCOc2ncc(Br)cn2)c1-c1ccc(Br)cc1` gave a Hit score of 0.09467.

`CCOC(=O)CSCCC1NC(C(=O)O)CS1` (centres undefined) [LETOSTEINE] returned a Hit score of 0.08225.

`CC1=C(C(=O)OCCN(Cc2ccccc2)c2ccccc2)C(c2cccc([N+](=O)[O-])c2)C(P2(=O)OCC(C)(C)CO2)=C(C)N1` (centres undefined) [EFONIDIPINE] came in with a Hit score of 0.1344.

For `C[C@@H]1C[C@H]2[C@@H]3C[C@H](F)C4=CC(=O)C=C[C@]4(C)[C@@]3(F)[C@@H](O)C[C@]2(C)[C@@]1(O)C(=O)COC(=O)C(C)(C)C` [FLUMETHASONE PIVALATE], the Hit score is 0.4081.

`CCOC(=O)c1ccc(C#Cc2ccc3c(c2)C(C)(C)CCS3)nc1` [TAZAROTENE] came in with a Hit score of 0.2393.

`CCC(C)(C)c1ccc(CC(C)CN2C[C@@H](C)O[C@@H](C)C2)cc1` (some centres undefined) [AMOROLFINE]: the Hit score is given as 0.3007.

Consider `O=c1[nH]c(=O)n([C@H]2C[C@H](O)[C@@H](CO)O2)cc1/C=C/Br` [BRIVUDINE], for which the Hit score is 0.05949.

Take `NC(=O)c1cccnc1` [NIACINAMIDE]: the Hit score came to 0.1289.

Turning to `Cn1c(=O)c2c(ncn2CC(O)CO)n(C)c1=O` (centres undefined) [DYPHYLLINE], the Hit score is 0.2241.

Compound `CCCc1nc(C(C)(C)O)c(C(=O)OCc2oc(=O)oc2C)n1Cc1ccc(-c2ccccc2-c2nnn[nH]2)cc1` [OLMESARTAN MEDOXOMIL] registered a Hit score of 0.1098.

Turning to `CC(=O)[C@@]1(O)CC[C@H]2[C@@H]3C[C@H](C)C4=CC(=O)CC[C@]4(C)[C@H]3CC[C@@]21C`, the Hit score is 0.2069.

Turning to `CCCCCCCCCCCCCCCC[N+](C)(C)C` [CETRIMONIUM], the Hit score is recorded as 0.2709.

In turn, `NC(=O)C1(N2CCCCC2)CCN(CCCC(=O)c2ccc(F)cc2)CC1` [PIPAMPERONE] showed a Hit score of 0.123.

`CNC1(C)C2CCC(C2)C1(C)C` (centres undefined) [MECAMYLAMINE] gave a Hit score of 0.1041.

With `C=C1[C@H](CO)[C@@H](O)C[C@@H]1n1cnc2c(=O)[nH]c(N)nc21.O`, the Hit score was determined as 0.1346.

For the compound `CC(C)(Oc1ccc(C2CC2(Cl)Cl)cc1)C(=O)O` (centres undefined) [CIPROFIBRATE], the Hit score stood at 0.1099.

`OC(c1ccccc1)(c1ccccc1)C12CC[N+](CCOCc3ccccc3)(CC1)CC2.[Br-]` [UMECLIDINIUM BROMIDE]: the Hit score turned out to be 0.1319.

As for `CC1(C)O[C@@H]2C[C@H]3[C@@H]4C[C@H](F)C5=CC(=O)C=C[C@]5(C)[C@H]4[C@@H](O)C[C@]3(C)[C@]2(C(=O)CO)O1` [FLUNISOLIDE], the Hit score is listed as 0.1937.

In the case of `CC1(C)O[C@@H]2[C@@H](CO[C@@]3(COS(N)(=O)=O)OC(C)(C)O[C@@H]23)O1` [TOPIRAMATE], the Hit score worked out at 0.1748.

`CCn1cc(C(=O)O)c(=O)c2cc(F)c(N3CCNCC3)cc21` [NORFLOXACIN] displayed a Hit score of 0.1871.

The compound `CCOC(=O)C1=C(C)NC(C)=C(C(=O)OC)C1c1cccc([N+](=O)[O-])c1` (centres undefined) [NITRENDIPINE] gave a Hit score of 0.1479.

For `CC[C@H](C)C(=O)O[C@H]1C[C@@H](C)C=C2C=C[C@H](C)[C@H](CC[C@@H]3C[C@@H](O)CC(=O)O3)[C@H]21` [LOVASTATIN], the Hit score was -0.08588.

Turning to `NS(=O)(=O)c1cc2c(cc1C(F)(F)F)NC(Cc1ccccc1)NS2(=O)=O` (centres undefined) [BENDROFLUMETHIAZIDE], the Hit score came out at 0.1205.

With `CNC(=O)c1ccccc1Sc1ccc2c(/C=C/c3ccccn3)n[nH]c2c1` [AXITINIB], the Hit score was determined as 0.3944.

For `CC(CN1c2ccccc2Sc2ccccc21)N(C)C` (centres undefined) [PROMETHAZINE], the Hit score was 0.1366.

Compound `CNC(=O)c1ccc(N2C(=S)N(c3cnc(C#N)c(C(F)(F)F)c3)C(=O)C23CCC3)cc1F` [APALUTAMIDE] registered a Hit score of 0.1472.

For `COc1cc2c(c(OC)c1OC)-c1ccc(OC)c(=O)cc1[C@@H](NC(C)=O)CC2` [COLCHICINE], the Hit score was 0.376.

In turn, `O=C(c1ccc(OCCN2CCCCC2)cc1)c1c(-c2ccc(O)cc2)sc2cc(O)ccc12` [RALOXIFENE] returned a Hit score of 0.2342.

Compound `CN1CCN(c2ccc(C(=O)Nc3n[nH]c4ccc(Cc5cc(F)cc(F)c5)cc34)c(NC3CCOCC3)c2)CC1` [ENTRECTINIB] registered a Hit score of 0.04314.

Consider `CC1=C(/C=C/C(C)=C/C=C/C(C)=C/C=O)C(C)(C)CCC1` [RETINAL], for which the Hit score was 0.3836.

On to `CCCC(CCC)C(=O)O.CCCC(CCC)C(=O)[O-].[Na+]` [DIVALPROEX SODIUM], for which the Hit score is 0.2277.

`Nc1nc(N)nc(-c2cc(Cl)ccc2Cl)n1` [IRSOGLADINE] registered a Hit score of 0.4068.

As for `CCN1CCCC1CNC(=O)c1cc(S(=O)(=O)CC)c(N)cc1OC` (centres undefined) [AMISULPRIDE], the Hit score turned out to be 0.2622.

Take `CC[C@@H](C(=O)[C@@H](C)[C@@H](O)[C@H](C)CCc1ccc(C)c(O)c1C(=O)O)[C@H]1O[C@](CC)([C@H]2CC[C@](O)(CC)[C@H](C)O2)C[C@@H]1C` [LASALOCID]: the Hit score was 0.1351.

`COc1cc(N)c(Cl)cc1C(=O)NC1CCN(Cc2ccccc2)CC1` [CLEBOPRIDE]: the Hit score was determined as 0.01312.

As to `CCCCOc1ccc(OCCCN2CCOCC2)cc1` [PRAMOXINE], the Hit score is on record as 0.1511.

Regarding `CCCC[C@H](C)C[C@H](O)/C=C/[C@H]1[C@H](O)CC(=O)[C@@H]1CCCC/C=C/C(=O)O` [LIMAPROST], the Hit score came to 0.08234.

Consider `CC1CCc2cc(F)cc3c(=O)c(C(=O)O)cn1c23` (centres undefined) [FLUMEQUINE], for which the Hit score is given as 0.08092.

Regarding `C[C@@H](CO)NC(=O)[C@@H]1C=C2c3cccc4[nH]cc(c34)C[C@H]2N(C)C1` [ERGONOVINE], the Hit score is 0.1101.

Compound `CC(C)c1nc(CN(C)C(=O)N[C@H](C(=O)N[C@@H](Cc2ccccc2)C[C@H](O)[C@H](Cc2ccccc2)NC(=O)OCc2cncs2)C(C)C)cs1` [RITONAVIR] displayed a Hit score of 0.04574.

The compound `COc1ccccc1OCCNCC(O)COc1cccc2[nH]c3ccccc3c12` (centres undefined) [CARVEDILOL] showed a Hit score of 0.5244.

`COc1ccc(-n2nc(C(N)=O)c3c2C(=O)N(c2ccc(N4CCCCC4=O)cc2)CC3)cc1` [APIXABAN]: the Hit score came to 0.2748.

Take `CC(=O)[C@@]1(O)CC[C@H]2[C@@H]3CCC4=CC(=O)CC[C@]4(C)[C@H]3CC[C@@]21C` [HYDROXYPROGESTERONE]: the Hit score was 0.0576.

Consider `CC(=O)O[C@H]1Cc2ccccc2N(C(N)=O)c2ccccc21` [ESLICARBAZEPINE ACETATE], for which the Hit score amounted to 0.123.

`COC(=O)Nc1nc2cc(C(=O)c3ccc(F)cc3)ccc2[nH]1` [FLUBENDAZOLE] gave a Hit score of 0.2556.

`CC[N+]1(C)CCCC(OC(=O)C(O)(c2ccccc2)c2ccccc2)C1` (centres undefined) [PIPENZOLATE] gave a Hit score of 0.1116.

Consider `CO/N=C(\C(=O)N[C@@H]1C(=O)N2C(C(=O)[O-])=C(C[N+]3(C)CCCC3)CS[C@H]12)c1csc(N)n1`, for which the Hit score came out at 0.1073.

Consider `CCN1CCN(c2cc(-c3ccc(F)cc3)c3c(n2)CCCCCC3)CC1` [BLONANSERIN], for which the Hit score is 0.05184.

For `CC(C)(C)NCC(O)c1ccc(O)c(CO)c1` (centres undefined) [ALBUTEROL], the Hit score is given as -0.2997.

`CC1(C)O[C@@H]2C[C@H]3[C@@H]4C[C@H](F)C5=CC(=O)CC[C@]5(C)[C@H]4[C@@H](O)C[C@]3(C)[C@]2(C(=O)CO)O1` [FLURANDRENOLIDE] came in with a Hit score of 0.03434.

On to `Cl.[NH-]c1c[n+](N2CCOCC2)no1`, for which the Hit score is 0.228.

Consider `CN(C)[C@@H](CCOc1cccc2ccccc12)c1ccccc1` [DAPOXETINE], for which the Hit score is on record as 0.1691.

Compound `CC[C@H](Nc1ncnc2[nH]cnc12)c1nc2cccc(F)c2c(=O)n1-c1ccccc1` [IDELALISIB] returned a Hit score of 0.4259.

Compound `Cc1nccn1CCC(C(N)=O)(c1ccccc1)c1ccccc1` [IMIDAFENACIN] came in with a Hit score of 0.008612.

In turn, `CN[C@@H]1CCc2[nH]c3ccc(C(N)=O)cc3c2C1` [FROVATRIPTAN] had a Hit score of 0.1063.

Values taken from ChEMBL document CHEMBL4303122, “Identification of potential treatments for COVID-19 through artificial intelligence-enabled phenomic analysis of human cells infected with SARS-CoV-2” (2020).
